# From article doi:10.1101/2021.09.16.460581
# These are yes or no findings as the source states them, for the method shown. Binding seen in cells or lysates may run through a third protein. A yes stands for co-enrichment or nearness to the bait. Other partners may have been found. Sequences can lack the tags named with a protein.
# T1: Mrc1-YFP (S. cerevisiae) (UniProt P25588)
# T1 sequence: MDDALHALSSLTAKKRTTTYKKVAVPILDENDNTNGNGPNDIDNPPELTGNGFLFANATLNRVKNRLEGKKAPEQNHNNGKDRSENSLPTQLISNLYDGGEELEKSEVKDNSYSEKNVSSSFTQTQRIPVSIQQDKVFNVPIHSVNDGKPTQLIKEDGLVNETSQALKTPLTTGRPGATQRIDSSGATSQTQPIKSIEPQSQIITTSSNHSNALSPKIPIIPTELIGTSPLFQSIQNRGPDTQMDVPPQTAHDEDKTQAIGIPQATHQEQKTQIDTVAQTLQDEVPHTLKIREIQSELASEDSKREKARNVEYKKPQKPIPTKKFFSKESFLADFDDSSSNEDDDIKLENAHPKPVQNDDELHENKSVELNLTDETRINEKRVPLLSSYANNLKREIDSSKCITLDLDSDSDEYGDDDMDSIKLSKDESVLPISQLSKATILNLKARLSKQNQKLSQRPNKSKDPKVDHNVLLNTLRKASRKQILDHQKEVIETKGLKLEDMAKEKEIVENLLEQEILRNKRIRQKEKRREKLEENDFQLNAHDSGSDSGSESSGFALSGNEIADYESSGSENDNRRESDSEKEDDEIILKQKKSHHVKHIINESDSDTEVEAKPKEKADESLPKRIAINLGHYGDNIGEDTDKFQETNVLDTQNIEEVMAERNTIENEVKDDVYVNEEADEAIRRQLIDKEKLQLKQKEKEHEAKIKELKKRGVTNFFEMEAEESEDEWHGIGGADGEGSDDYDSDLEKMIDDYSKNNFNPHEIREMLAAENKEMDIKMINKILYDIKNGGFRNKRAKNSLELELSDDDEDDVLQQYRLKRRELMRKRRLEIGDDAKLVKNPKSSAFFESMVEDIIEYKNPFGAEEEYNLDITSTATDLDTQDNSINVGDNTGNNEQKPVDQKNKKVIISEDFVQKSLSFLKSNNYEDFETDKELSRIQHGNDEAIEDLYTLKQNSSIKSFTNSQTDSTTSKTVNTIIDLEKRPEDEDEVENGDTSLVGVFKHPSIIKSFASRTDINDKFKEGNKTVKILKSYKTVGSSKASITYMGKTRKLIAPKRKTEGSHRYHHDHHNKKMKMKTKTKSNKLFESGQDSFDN
# Target: T1, Mrc1-YFP (S. cerevisiae)
# Assay: affinity purification with mass spectrometry
row,Binder,binding
1,"Cdc53 (protein, UniProt Q12018 1-815) MSETLPRSDDLEATWNFIEPGINQILGNEKNQASTSKRVYKILSPTMYMEVYTAIYNYCVNKSRSSGHFSTDSRTGQSTILVGSEIYEKLKNYLKNYILNFKQSNSETFLQFYVKRWKRFTIGAIFLNHAFDYMNRYWVQKERSDGKRHIFDVNTLCLMTWKEVMFDPSKDVLINELLDQVTLGREGQIIQRSNISTAIKSLVALGIDPQDLKKLNLNVYIQVFEKPFLKKTQEYYTQYTNDYLEKHSVTEYIFEAHEIIKREEKAMTIYWDDHTKKPLSMALNKVLITDHIEKLENEFVVLLDARDIEKITSLYALIRRDFTLIPRMASVFENYVKKTGENEISSLLAMHKHNIMKNENANPKKLALMTAHSLSPKDYIKKLLEVHDIFSKIFNESFPDDIPLAKALDNACGAFININEFALPAGSPKSATSKTSEMLAKYSDILLKKATKPEVASDMSDEDIITIFKYLTDKDAFETHYRRLFAKRLIHGTSTSAEDEENIIQRLQAANSMEYTGKITKMFQDIRLSKILEDDFAVALKNEPDYSKAKYPDLQPFVLAENMWPFSYQEVEFKLPKELVPSHEKLKESYSQKHNGRILKWLWPLCRGELKADIGKPGRMPFNFTVTLFQMAILLLYNDADVLTLENIQEGTSLTIQHIAAAMVPFIKFKLIQQVPPGLDALVKPETQFKLSRPYKALKTNINFASGVKNDILQSLSGGGHDNHGNKLGNKRLTEDERIEKELNTERQIFLEACIVRIMKAKRNLPHTTLVNECIAQSHQRFNAKVSMVKRAIDSLIQKGYLQRGDDGESYAYLA",binds
2,"Dpb2 (protein, UniProt P24482 1-689) MFGSGNVLPVKIQPPLLRPLAYRVLSRKYGLSIKSDGLSALAEFVGTNIGANWRQGPATIKFLEQFAAVWKQQERGLFIDQSGVKEVIQEMKEREKVEWSHEHPIQHEENILGRTDDDENNSDDEMPIAADSSLQNVSLSSPMRQPTERDEYKQPFKPESSKALDWRDYFKVINASQQQRFSYNPHKMQFIFVPNKKQNGLGGIAGFLPDIEDKVQMFLTRYYLTNDRVMRNENFQNSDMFNPLSSMVSLQNELSNTNRQQQSSSMSITPIKNLLGRDAQNFLLLGLLNKNFKGNWSLEDPSGSVEIDISQTIPTQGHYYVPGCMVLVEGIYYSVGNKFHVTSMTLPPGERREITLETIGNLDLLGIHGISNNNFIARLDKDLKIRLHLLEKELTDHKFVILGANLFLDDLKIMTALSKILQKLNDDPPTLLIWQGSFTSVPVFASMSSRNISSSTQFKNNFDALATLLSRFDNLTENTTMIFIPGPNDLWGSMVSLGASGTLPQDPIPSAFTKKINKVCKNVVWSSNPTRIAYLSQEIVIFRDDLSGRFKRHRLEFPFNESEDVYTENDNMMSKDTDIVPIDELVKEPDQLPQKVQETRKLVKTILDQGHLSPFLDSLRPISWDLDHTLTLCPIPSTMVLCDTTSAQFDLTYNGCKVINPGSFIHNRRARYMEYVPSSKKTIQEEIYI",binds
3,"Pol1 (protein, UniProt P13382 1-1468) MSSKSEKLEKLRKLQAARNGTSIDDYEGDESDGDRIYDEIDEKEYRARKRQELLHDDFVVDDDGVGYVDRGVEEDWREVDNSSSDEDTGNLASKDSKRKKNIKREKDHQITDMLRTQHSKSTLLAHAKKSQKKSIPIDNFDDILGEFESGEVEKPNILLPSKLRENLNSSPTSEFKSSIKRVNGNDESSHDAGISKKVKIDPDSSTDKYLEIESSPLKLQSRKLRYANDVQDLLDDVENSPVVATKRQNVLQDTLLANPPSAQSLADEEDDEDSDEDIILKRRTMRSVTTTRRVNIDSRSNPSTSPFVTAPGTPIGIKGLTPSKSLQSNTDVATLAVNVKKEDVVDPETDTFQMFWLDYCEVNNTLILFGKVKLKDDNCVSAMVQINGLCRELFFLPREGKTPTDIHEEIIPLLMDKYGLDNIRAKPQKMKYSFELPDIPSESDYLKVLLPYQTPKSSRDTIPSDLSSDTFYHVFGGNSNIFESFVIQNRIMGPCWLDIKGADFNSIRNASHCAVEVSVDKPQNITPTTTKTMPNLRCLSLSIQTLMNPKENKQEIVSITLSAYRNISLDSPIPENIKPDDLCTLVRPPQSTSFPLGLAALAKQKLPGRVRLFNNEKAMLSCFCAMLKVEDPDVIIGHRLQNVYLDVLAHRMHDLNIPTFSSIGRRLRRTWPEKFGRGNSNMNHFFISDICSGRLICDIANEMGQSLTPKCQSWDLSEMYQVTCEKEHKPLDIDYQNPQYQNDVNSMTMALQENITNCMISAEVSYRIQLLTLTKQLTNLAGNAWAQTLGGTRAGRNEYILLHEFSRNGFIVPDKEGNRSRAQKQRQNEENADAPVNSKKAKYQGGLVFEPEKGLHKNYVLVMDFNSLYPSIIQEFNICFTTVDRNKEDIDELPSVPPSEVDQGVLPRLLANLVDRRREVKKVMKTETDPHKRVQCDIRQQALKLTANSMYGCLGYVNSRFYAKPLAMLVTNKGREILMNTRQLAESMNLLVVYGDTDSVMIDTGCDNYADAIKIGLGFKRLVNERYRLLEIDIDNVFKKLLLHAKKKYAALTVNLDKNGNGTTVLEVKGLDMKRREFCPLSRDVSIHVLNTILSDKDPEEALQEVYDYLEDIRIKVETNNIRIDKYKINMKLSKDPKAYPGGKNMPAVQVALRMRKAGRVVKAGSVITFVITKQDEIDNAADTPALSVAERAHALNEVMIKSNNLIPDPQYYLEKQIFAPVERLLERIDSFNVVRLSEALGLDSKKYFRREGGNNNGEDINNLQPLETTITDVERFKDTVTLELSCPSCDKRFPFGGIVSSNYYRVSYNGLQCKHCEQLFTPLQLTSQIEHSIRAHISLYYAGWLQCDDSTCGIVTRQVSVFGKRCLNDGCTGVMRYKYSDKQLYNQLLYFDSLFDCEKNKKQELKPIYLPDDLDYPKEQLTESSIKALTEQNRELMETGRSVVQKYLNDCGRRYVDMTSIFDFMLN",binds

# Second part, the binder after the results:
row,binding,Binder
1,binds,"Pol12 (protein, UniProt P38121 1-705) MSGSIDVITHFGPDADKPEIITALENLTKLHALSVEDLYIKWEQFSNQRRQTHTDLTSKNIDEFKQFLQLQMEKRANQISSSSKVNTSTKKPVIKKSLNSSPLFGLSIPKTPTLKKRKLHGPFSLSDSKQTYNVGSEAETNEKGNSSLKLEFTPGMAEDAVGDSAPLSHAKSSDAKTPGSSTFQTPTTNTPTTSRQNVPAGEILDSLNPENIEISSGNPNVGLLSTEEPSYNQVKVEPFYDAKKYKFRTMRQNLQEASDVLDDQIESFTKIIQNHYKLSPNDFADPTIQSQSEIYAVGRIVPDSPTYDKFLNPESLSLETSRMGGVGRRVRLDLSQVNELSFFLGQIVAFKGKNANGDYFTVNSILPLPYPNSPVSTSQELQEFQANLEGSSLKVIVTCGPYFANDNFSLELLQEFIDSINNEVKPHVLIMFGPFIDITHPLIASGKLPNFPQFKTQPKTLDELFLKLFTPILKTISPHIQTVLIPSTKDAISNHAAYPQASLIRKALQLPKRNFKCMANPSSFQINEIYFGCSNVDTFKDLKEVIKGGTTSSRYRLDRVSEHILQQRRYYPIFPGSIRTRIKPKDVSTKKETNDMESKEEKVYEHISGADLDVSYLGLTEFVGGFSPDIMIIPSELQHFARVVQNVVVINPGRFIRATGNRGSYAQITVQCPDLEDGKLTLVEGEEPVYLHNVWKRARVDLIAS"
2,binds,"Rpn8 (protein, UniProt Q08723 1-338) MSLQHEKVTIAPLVLLSALDHYERTQTKENKRCVGVILGDANSSTIRVTNSFALPFEEDEKNSDVWFLDHNYIENMNEMCKKINAKEKLIGWYHSGPKLRASDLKINELFKKYTQNNPLLLIVDVKQQGVGLPTDAYVAIEQVKDDGTSTEKTFLHLPCTIEAEEAEEIGVEHLLRDVRDQAAGGLSIRLTNQLKSLKGLQSKLKDVVEYLDKVINKELPINHTILGKLQDVFNLLPNLGTPDDDEIDVENHDRINISNNLQKALTVKTNDELMVIYISNLVRSIIAFDDLIENKIQNKKIQEQRVKDKQSKVSDDSESESGDKEATAPLIQRKNKKN"
3,binds,"Pri2 (protein, UniProt P20457 1-528) MFRQSKRRIASRKNFSSYDDIVKSELDVGNTNAANQIILSSSSSEEEKKLYARLYESKLSFYDLPPQGEITLEQFEIWAIDRLKILLEIESCLSRNKSIKEIETIIKPQFQKLLPFNTESLEDRKKDYYSHFILRLCFCRSKELREKFVRAETFLFKIRFNMLTSTDQTKFVQSLDLPLLQFISNEEKAELSHQLYQTVSASLQFQLNLNEEHQRKQYFQQEKFIKLPFENVIELVGNRLVFLKDGYAYLPQFQQLNLLSNEFASKLNQELIKTYQYLPRLNEDDRLLPILNHLSSGYTIADFNQQKANQFSENVDDEINAQSVWSEEISSNYPLCIKNLMEGLKKNHHLRYYGRQQLSLFLKGIGLSADEALKFWSEAFTRNGNMTMEKFNKEYRYSFRHNYGLEGNRINYKPWDCHTILSKPRPGRGDYHGCPFRDWSHERLSAELRSMKLTQAQIISVLDSCQKGEYTIACTKVFEMTHNSASADLEIGEQTHIAHPNLYFERSRQLQKKQQKLEKEKLFNNGNH"
